{
  "source": "patent US5081131A",
  "about": "“Omega-((hetero)alkyl)benz(cd)-indol-2-amines” (American Cyanamid Company, priority 1988, dated 1992)",
  "test_system": "alpha-adrenoceptor",
  "experiment": "In vitro alpha-adrenoceptor binding in heart membrane (3H-prazocin displacement)",
  "design": "species or system Sprague-Dawley rat",
  "details": "test compound at 10 micromoles, 2.5 nM 3H-prazocin; mean of three incubations",
  "note": "At least one read-out could not be matched to a standard name with certainty.",
  "data": [
    {"compound": "O=C(O)/C=C/C(=O)O.c1cc2c3c(cccc3c1)C(NCCCCn1ccnc1)=N2", "note": "[N-(4-(1H-imidazol-1-yl)butyl)benz(cd)indol-2-amine, fumarate]", "values": [
      {"measurement": "Percent Specific Binding", "value": 78.4, "unit": "%"}
    ]}
  ]
}
